{"source": "PubChem BioAssay AID1224828 (NIAID, 2016)", "test": "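Find genes required for NF-kappaB p65 moving into the nucleus after LPS in mouse macrophages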 (primary screen)", "cell system": "mouse RAW264.7 G9 macrophage reporter cells (GFP-p65, Tnf promoter-mCherry)", "reagent": "siRNA pool against mouse genes, 100 nM", "timing": "2 days siRNA transfection, then 40 min LPS before fixation", "challenge": "LPS (Salmonella minnesota R595) at 10 ng/ml", "measurement": "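Microscopy ratio of nuclear to perinuclear-ring GFP-p65 signal, scaled to the plate median; gene score is the average of two replicate robust z-scores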", "scale": "p65 translocation robust z-score: higher = more nuclear NF-kappaB p65 after LPS than the plate median; nuclear/cytoplasmic p65 ratio: higher = more nuclear NF-kappaB p65", "rule for the call": "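Called active when z exceeds 3.3 or falls under -1.56 (median of Tlr4 controls), giving activity score of at least 50; no calls for control wells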", "meaning of the calls": "active = hit (p65 shift raised or lowered); inactive = no clear change", "note": "Shown is a random part of about 17,000 reagents. In the full data, 762 (4.5%) were called active. 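Active calls include both raised and lowered p65 entry, mostly lowered; wells with fewer than 50 cells lack a z-score.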 Raw values are not corrected between plates. Unmarked entries are inactive. A reagent listed more than once was tested more than once; the source does not tell the runs apart."}
{"target gene": "Bok", "PubChem SID": "SID315470911", "p65 translocation robust z-score": 0.34, "nuclear/cytoplasmic p65 ratio, rep 1": 1.72, "nuclear/cytoplasmic p65 ratio, rep 2": 1.61, "low cell count flag": "enough cells to score"}
{"target gene": "Rgs3", "PubChem SID": "SID315470842", "p65 translocation robust z-score": 0.25, "nuclear/cytoplasmic p65 ratio, rep 1": 1.53, "nuclear/cytoplasmic p65 ratio, rep 2": 1.64, "low cell count flag": "enough cells to score"}
{"target gene": "Extl1", "PubChem SID": "SID315471409", "p65 translocation robust z-score": -1.32, "nuclear/cytoplasmic p65 ratio, rep 1": 1.5, "nuclear/cytoplasmic p65 ratio, rep 2": 1.19, "low cell count flag": "enough cells to score"}
{"target gene": "Ppp1r1a", "PubChem SID": "SID315471868", "p65 translocation robust z-score": 0.5, "nuclear/cytoplasmic p65 ratio, rep 1": 1.46, "nuclear/cytoplasmic p65 ratio, rep 2": 1.57, "low cell count flag": "enough cells to score"}
{"target gene": "Tmem184a", "PubChem SID": "SID315478932", "p65 translocation robust z-score": 0.47, "nuclear/cytoplasmic p65 ratio, rep 1": 1.64, "nuclear/cytoplasmic p65 ratio, rep 2": 1.93, "low cell count flag": "enough cells to score"}
{"target gene": "1110038F14Rik", "PubChem SID": "SID315477089", "p65 translocation robust z-score": -0.6, "nuclear/cytoplasmic p65 ratio, rep 1": 1.46, "nuclear/cytoplasmic p65 ratio, rep 2": 1.36, "low cell count flag": "enough cells to score"}
{"target gene": "Synm", "PubChem SID": "SID315479079", "p65 translocation robust z-score": 0.26, "nuclear/cytoplasmic p65 ratio, rep 1": 1.51, "nuclear/cytoplasmic p65 ratio, rep 2": 1.38, "low cell count flag": "enough cells to score"}
{"target gene": "Strada", "PubChem SID": "SID315474475", "p65 translocation robust z-score": -0.02, "nuclear/cytoplasmic p65 ratio, rep 1": 1.65, "nuclear/cytoplasmic p65 ratio, rep 2": 1.41, "low cell count flag": "enough cells to score"}
{"target gene": "Strada", "PubChem SID": "SID315474475", "p65 translocation robust z-score": -0.76, "nuclear/cytoplasmic p65 ratio, rep 1": 1.29, "nuclear/cytoplasmic p65 ratio, rep 2": 1.36, "low cell count flag": "enough cells to score"}
{"target gene": "Scamp2", "PubChem SID": "SID315470292", "p65 translocation robust z-score": 0.22, "nuclear/cytoplasmic p65 ratio, rep 1": 1.46, "nuclear/cytoplasmic p65 ratio, rep 2": 1.23, "low cell count flag": "enough cells to score"}
{"target gene": "Nfs1", "PubChem SID": "SID315468164", "p65 translocation robust z-score": -0.95, "nuclear/cytoplasmic p65 ratio, rep 1": 1.6, "nuclear/cytoplasmic p65 ratio, rep 2": 1.48, "low cell count flag": "enough cells to score"}
{"target gene": "Hivep2", "PubChem SID": "SID315467213", "p65 translocation robust z-score": -0.72, "nuclear/cytoplasmic p65 ratio, rep 1": 1.28, "nuclear/cytoplasmic p65 ratio, rep 2": 1.3, "low cell count flag": "enough cells to score"}
{"target gene": "Pramel6", "PubChem SID": "SID315481689", "p65 translocation robust z-score": -0.52, "nuclear/cytoplasmic p65 ratio, rep 1": 1.32, "nuclear/cytoplasmic p65 ratio, rep 2": 1.15, "low cell count flag": "enough cells to score"}
{"target gene": "Cyp2f2", "PubChem SID": "SID315466237", "p65 translocation robust z-score": 0.72, "nuclear/cytoplasmic p65 ratio, rep 1": 1.49, "nuclear/cytoplasmic p65 ratio, rep 2": 2.11, "low cell count flag": "enough cells to score"}

Targets above whose gene name begins with P or p (2):
{"target gene": "Ppp1r1a", "PubChem SID": "SID315471868", "p65 translocation robust z-score": 0.5, "nuclear/cytoplasmic p65 ratio, rep 1": 1.46, "nuclear/cytoplasmic p65 ratio, rep 2": 1.57, "low cell count flag": "enough cells to score"}
{"target gene": "Pramel6", "PubChem SID": "SID315481689", "p65 translocation robust z-score": -0.52, "nuclear/cytoplasmic p65 ratio, rep 1": 1.32, "nuclear/cytoplasmic p65 ratio, rep 2": 1.15, "low cell count flag": "enough cells to score"}
